Among the data in PMC11151825 (RSC Chemical Biology, 2024) are oxidative folding yield and isolated yield values, retold here.

Several values for one entry are separate records, joined by “and”; a condition that tells them apart may be missing. Equal values may be shown once. Plain letter strings leave the end groups untold.

The first series is described as follows: general procedure: Fmoc solid-phase peptide synthesis; 2-CTC resin (substitution value 0.45 or 1 mmol/g); HCTU/DIPEA; HATU/DIPEA for ligation and cyclization. To be noted: oxidative folding step, HPLC peak area integration; run 1.
On to VCGETCVGGTCNTPGCTCSWPVCT, for which the oxidative folding yield was 15.4% and 23.4%.

The same series, now with this note: whole synthesis, on initial resin loading, scale of the general procedure 0.125 mmol.
As to Boc-FK(ivDde)PLAAaR(Pbf), the isolated yield was determined as 43.3%.
Regarding Boc-FK(ivDde)PLA[Abu]aR(Pbf), the isolated yield was found to be 50.0%.
Still for that read-out and setting: the value for “Boc-GC(Acm)Y(tBu)FQ(Trt)N(Trt)C(Acm)PR(Pbf)G” was 35.0%; that for Boc-GC(Acm)Y(tBu)IQ(Trt)N(Trt)C(Acm)PLG was 36.0%; that for Boc-GCT(tBu)K(ivDde)S(tBu)IPPICG was 4.6%.
Same read-out and setting: the value for Boc-R(Pbf)N(Trt)GLP was 50.9%.
